Some of the results follow.
Key:
Experiment in all cases: log2 fold change, soluble protein after heating vs DMSO (PISA); higher = thermal stabilisation; K562 lysate, 10 uM; active = over 0.2 and 3.5 SD of the protein, either way, in both replicates (recomputed)
lapatinib = compound: CS(=O)(=O)CCNCc1ccc(-c2ccc3ncnc(Nc4ccc(OCc5cccc(F)c5)c(Cl)c4)c3c2)o1 [lapatinib]
Outline: (§1)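 Log-two fold change in thermal stability relative to solvent controls is reported from duplicates. For each sample, crude K562 extract from dounce-homogenised pellets in PBS pH 7.4 with 1 mM MgCl2, at 1 mg/mL protein, was treated with 10 μM compound for 30 min. Aliquots heated for 3 min across 48°C-58°C were pooled, brought to 0.5% NP-40 at 4°C and cleared at 21,000xg for 90 min. The supernatant was quantified by TMTpro 16plex LC-MS/MS with channel sums equalised.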

Chains of the proteins cited; added tags and fusions are not shown. Lines headed by an entry give the natural chain unless they say otherwise; changes in a name come on top.
UniProt Q00839, whole entry, looked up: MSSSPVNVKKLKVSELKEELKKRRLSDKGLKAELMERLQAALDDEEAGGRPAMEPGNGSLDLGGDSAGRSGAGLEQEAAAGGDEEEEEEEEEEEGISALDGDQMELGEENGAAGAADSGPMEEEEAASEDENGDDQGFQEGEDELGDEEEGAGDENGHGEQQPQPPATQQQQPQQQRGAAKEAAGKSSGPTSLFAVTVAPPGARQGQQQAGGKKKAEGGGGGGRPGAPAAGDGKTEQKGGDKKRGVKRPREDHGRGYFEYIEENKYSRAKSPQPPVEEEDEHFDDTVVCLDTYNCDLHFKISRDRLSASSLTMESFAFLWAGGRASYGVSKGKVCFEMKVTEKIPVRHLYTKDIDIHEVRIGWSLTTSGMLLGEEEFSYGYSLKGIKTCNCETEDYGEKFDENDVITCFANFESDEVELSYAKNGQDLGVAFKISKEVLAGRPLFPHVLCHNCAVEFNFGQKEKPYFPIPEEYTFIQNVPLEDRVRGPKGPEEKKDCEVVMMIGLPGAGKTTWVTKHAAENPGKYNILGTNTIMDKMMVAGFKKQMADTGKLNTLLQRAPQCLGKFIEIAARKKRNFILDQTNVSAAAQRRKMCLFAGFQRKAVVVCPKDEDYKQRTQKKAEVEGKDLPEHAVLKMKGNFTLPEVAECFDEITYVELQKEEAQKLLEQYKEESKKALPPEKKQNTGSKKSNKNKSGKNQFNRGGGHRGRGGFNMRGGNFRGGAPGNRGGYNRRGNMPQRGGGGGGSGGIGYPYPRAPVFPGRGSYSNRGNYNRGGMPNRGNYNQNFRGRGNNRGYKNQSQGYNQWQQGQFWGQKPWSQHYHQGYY
UniProt P17066, whole entry, looked up: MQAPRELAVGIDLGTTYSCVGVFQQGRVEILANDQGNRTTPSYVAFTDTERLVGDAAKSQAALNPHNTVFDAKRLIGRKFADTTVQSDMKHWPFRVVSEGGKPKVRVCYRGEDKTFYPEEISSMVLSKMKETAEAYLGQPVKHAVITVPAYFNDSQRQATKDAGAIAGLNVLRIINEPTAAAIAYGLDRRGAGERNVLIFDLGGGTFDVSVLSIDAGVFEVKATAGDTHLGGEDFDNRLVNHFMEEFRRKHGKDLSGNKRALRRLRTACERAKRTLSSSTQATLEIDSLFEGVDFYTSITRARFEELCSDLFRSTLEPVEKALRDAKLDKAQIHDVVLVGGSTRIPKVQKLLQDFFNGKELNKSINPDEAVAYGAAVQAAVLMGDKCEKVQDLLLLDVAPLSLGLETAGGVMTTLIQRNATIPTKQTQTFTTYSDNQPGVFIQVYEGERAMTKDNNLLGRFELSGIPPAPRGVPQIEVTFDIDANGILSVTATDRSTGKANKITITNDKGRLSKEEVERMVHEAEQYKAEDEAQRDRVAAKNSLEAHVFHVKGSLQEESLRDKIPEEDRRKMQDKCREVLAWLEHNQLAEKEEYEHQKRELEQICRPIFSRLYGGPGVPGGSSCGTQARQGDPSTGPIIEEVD
UniProt P34931, whole entry, looked up: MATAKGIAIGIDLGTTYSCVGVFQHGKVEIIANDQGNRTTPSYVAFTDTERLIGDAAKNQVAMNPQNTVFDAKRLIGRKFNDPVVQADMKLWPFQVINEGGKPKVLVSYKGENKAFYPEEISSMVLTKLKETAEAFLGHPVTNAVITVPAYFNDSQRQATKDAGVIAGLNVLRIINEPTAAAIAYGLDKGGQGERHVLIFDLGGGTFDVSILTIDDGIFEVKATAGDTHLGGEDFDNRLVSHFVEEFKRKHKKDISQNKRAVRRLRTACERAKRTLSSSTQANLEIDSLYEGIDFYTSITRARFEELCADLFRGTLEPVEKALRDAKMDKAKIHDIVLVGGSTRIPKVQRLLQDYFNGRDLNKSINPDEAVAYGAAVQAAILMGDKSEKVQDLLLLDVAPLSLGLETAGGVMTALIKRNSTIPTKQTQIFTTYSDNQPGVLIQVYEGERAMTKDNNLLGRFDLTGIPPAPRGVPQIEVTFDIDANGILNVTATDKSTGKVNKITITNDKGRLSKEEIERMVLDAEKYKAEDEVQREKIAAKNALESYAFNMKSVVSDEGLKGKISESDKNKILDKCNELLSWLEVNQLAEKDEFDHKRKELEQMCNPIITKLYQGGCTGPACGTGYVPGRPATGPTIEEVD
UniProt Q53FT3: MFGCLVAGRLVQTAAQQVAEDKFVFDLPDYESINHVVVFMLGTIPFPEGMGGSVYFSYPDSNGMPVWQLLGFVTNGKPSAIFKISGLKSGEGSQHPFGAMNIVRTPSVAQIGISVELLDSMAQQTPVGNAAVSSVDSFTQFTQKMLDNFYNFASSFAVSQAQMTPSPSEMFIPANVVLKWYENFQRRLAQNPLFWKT
UniProt Q14103: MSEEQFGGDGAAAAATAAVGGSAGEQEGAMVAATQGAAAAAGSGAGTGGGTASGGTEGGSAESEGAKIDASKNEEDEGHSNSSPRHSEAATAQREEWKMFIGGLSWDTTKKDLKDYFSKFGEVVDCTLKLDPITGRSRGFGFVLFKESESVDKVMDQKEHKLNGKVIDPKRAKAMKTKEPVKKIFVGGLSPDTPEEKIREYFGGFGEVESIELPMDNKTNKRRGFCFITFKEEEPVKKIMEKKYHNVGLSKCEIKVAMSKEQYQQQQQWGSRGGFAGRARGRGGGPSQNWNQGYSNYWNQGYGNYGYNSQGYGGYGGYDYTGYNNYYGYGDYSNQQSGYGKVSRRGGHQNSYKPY
UniProt P55795: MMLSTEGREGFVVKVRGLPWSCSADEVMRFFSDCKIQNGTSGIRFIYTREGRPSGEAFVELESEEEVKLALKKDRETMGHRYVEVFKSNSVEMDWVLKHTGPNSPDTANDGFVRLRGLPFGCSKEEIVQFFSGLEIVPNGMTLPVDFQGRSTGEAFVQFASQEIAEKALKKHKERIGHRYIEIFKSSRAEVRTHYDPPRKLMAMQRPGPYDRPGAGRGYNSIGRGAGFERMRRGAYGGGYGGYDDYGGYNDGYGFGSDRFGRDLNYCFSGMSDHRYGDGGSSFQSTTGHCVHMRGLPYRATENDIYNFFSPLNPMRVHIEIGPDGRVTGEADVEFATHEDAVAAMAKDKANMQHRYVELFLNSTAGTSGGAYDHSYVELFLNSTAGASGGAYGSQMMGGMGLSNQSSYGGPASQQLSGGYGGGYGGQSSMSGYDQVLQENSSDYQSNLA
UniProt Q9NWT6: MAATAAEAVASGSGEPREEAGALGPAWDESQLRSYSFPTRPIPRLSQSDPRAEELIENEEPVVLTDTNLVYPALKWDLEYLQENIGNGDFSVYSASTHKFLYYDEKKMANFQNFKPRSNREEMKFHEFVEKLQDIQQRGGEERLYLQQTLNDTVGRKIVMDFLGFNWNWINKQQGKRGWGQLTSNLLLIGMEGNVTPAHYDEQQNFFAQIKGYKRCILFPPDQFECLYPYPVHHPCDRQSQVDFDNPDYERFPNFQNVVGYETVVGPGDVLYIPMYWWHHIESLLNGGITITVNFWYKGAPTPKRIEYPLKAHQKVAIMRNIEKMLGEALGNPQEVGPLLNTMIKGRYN
UniProt Q6AI08: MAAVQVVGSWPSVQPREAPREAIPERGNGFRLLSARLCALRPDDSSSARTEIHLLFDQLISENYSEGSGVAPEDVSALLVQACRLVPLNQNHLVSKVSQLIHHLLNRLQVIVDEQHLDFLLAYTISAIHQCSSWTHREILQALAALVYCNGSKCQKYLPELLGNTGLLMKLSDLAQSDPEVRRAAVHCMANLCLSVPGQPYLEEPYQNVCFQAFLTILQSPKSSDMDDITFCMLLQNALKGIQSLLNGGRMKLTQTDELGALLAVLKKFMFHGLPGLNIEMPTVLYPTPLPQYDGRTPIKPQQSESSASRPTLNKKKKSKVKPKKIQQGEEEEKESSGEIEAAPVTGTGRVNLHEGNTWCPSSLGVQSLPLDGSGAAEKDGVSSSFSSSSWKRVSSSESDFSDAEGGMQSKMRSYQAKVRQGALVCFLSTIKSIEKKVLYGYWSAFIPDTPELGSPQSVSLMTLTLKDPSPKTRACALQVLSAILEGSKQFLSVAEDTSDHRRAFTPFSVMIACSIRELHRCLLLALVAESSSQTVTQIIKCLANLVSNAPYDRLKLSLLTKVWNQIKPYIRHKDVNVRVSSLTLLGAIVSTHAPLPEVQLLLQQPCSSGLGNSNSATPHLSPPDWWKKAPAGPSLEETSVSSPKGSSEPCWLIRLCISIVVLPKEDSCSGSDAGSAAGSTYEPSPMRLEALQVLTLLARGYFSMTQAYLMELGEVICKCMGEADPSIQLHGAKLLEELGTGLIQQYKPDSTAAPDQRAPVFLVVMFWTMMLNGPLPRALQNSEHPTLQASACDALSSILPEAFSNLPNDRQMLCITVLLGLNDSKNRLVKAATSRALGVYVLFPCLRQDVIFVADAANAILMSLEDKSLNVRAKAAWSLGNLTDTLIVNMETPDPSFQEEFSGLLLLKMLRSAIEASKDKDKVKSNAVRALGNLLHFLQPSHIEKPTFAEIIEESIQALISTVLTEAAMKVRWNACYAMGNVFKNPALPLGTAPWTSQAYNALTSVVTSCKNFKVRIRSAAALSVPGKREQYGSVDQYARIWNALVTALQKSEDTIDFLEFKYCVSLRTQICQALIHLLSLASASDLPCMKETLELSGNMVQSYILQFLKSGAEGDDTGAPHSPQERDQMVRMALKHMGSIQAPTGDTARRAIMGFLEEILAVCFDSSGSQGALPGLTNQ
UniProt P08397: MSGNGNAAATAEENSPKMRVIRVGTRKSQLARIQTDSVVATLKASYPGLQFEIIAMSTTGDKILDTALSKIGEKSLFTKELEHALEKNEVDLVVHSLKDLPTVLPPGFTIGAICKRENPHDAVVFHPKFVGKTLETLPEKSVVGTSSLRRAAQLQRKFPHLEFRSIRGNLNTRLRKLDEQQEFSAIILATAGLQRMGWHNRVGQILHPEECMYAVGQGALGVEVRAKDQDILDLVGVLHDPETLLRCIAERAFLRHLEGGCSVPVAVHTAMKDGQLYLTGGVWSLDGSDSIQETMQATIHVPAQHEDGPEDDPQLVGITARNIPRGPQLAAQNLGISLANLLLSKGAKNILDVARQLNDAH
UniProt Q9Y5Z4: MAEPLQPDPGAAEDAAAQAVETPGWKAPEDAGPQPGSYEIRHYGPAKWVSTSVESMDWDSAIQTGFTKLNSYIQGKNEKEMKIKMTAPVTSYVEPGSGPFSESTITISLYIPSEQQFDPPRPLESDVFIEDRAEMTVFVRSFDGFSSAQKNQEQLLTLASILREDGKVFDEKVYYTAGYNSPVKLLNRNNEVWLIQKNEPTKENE
UniProt P52272: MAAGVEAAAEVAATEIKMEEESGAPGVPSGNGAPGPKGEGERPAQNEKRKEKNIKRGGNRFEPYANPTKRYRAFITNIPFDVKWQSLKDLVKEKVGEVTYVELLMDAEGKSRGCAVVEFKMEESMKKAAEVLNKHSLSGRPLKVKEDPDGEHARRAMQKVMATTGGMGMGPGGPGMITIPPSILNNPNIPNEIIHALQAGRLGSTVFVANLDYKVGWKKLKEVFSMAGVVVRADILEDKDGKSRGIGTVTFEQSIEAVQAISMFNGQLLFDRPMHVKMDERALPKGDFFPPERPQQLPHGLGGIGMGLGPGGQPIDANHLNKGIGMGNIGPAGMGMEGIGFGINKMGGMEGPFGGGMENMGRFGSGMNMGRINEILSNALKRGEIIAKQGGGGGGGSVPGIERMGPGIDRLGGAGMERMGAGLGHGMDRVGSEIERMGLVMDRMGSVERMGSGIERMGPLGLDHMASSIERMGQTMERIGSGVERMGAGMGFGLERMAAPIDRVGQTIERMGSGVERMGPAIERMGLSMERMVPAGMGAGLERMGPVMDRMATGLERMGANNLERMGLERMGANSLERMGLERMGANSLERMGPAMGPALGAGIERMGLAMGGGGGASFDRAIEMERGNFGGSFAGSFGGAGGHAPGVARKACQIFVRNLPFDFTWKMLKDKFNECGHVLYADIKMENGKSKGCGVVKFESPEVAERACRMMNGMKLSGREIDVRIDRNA
UniProt Q86YM7: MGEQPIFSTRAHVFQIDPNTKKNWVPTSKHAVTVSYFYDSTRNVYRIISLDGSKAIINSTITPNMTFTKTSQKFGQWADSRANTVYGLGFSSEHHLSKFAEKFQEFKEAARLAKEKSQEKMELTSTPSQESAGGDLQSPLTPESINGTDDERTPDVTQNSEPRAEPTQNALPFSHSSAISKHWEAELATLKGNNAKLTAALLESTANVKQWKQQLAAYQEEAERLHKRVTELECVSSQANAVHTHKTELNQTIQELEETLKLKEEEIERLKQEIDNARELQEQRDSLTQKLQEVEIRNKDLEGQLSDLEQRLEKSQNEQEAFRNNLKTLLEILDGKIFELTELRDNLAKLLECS

pictilisib = compound: CS(=O)(=O)N1CCN(Cc2cc3nc(-c4cccc5[nH]ncc45)nc(N4CCOCC4)c3s2)CC1 [pictilisib]
Outline: as §1

crizotinib = compound: C[C@@H](Oc1cc(-c2cnn(C3CCNCC3)c2)cnc1N)c1c(Cl)ccc(F)c1Cl [crizotinib]
Outline: as §1

[1] = compound: C[C@H](C1=CC=C(C=C1)C(=O)NC2=C3C=CNC3=NC=C2)N
Outline: as §1

duvelisib = compound: C[C@H](Nc1ncnc2nc[nH]c12)c1cc2cccc(Cl)c2c(=O)n1-c1ccccc1 [duvelisib]
Outline: as §1

gandotinib = compound: Cc1cc(Nc2cc(CN3CCOCC3)c3nc(C)c(Cc4ccc(Cl)cc4F)n3n2)n[nH]1 [gandotinib]
Outline: as §1

tozasertib = compound: Cc1cc(Nc2cc(N3CCN(C)CC3)nc(Sc3ccc(NC(=O)C4CC4)cc3)n2)n[nH]1 [tozasertib]
Outline: as §1

doramapimod = compound: Cc1ccc(-n2nc(C(C)(C)C)cc2NC(=O)Nc2ccc(OCCN3CCOCC3)c3ccccc23)cc1 [doramapimod]
Outline: as §1

bafetinib = compound: Cc1ccc(NC(=O)c2ccc(CN3CC[C@H](N(C)C)C3)c(C(F)(F)F)c2)cc1Nc1nccc(-c2cncnc2)n1 [bafetinib]
Outline: as §1

[2] = compound: Cc1cccc(CC(=O)N2CCc3c2ccc(-c2cn(C)c4ncnc(N)c24)c3F)n1
Outline: as §1

nilotinib = compound: Cc1cn(-c2cc(NC(=O)c3ccc(C)c(Nc4nccc(-c5cccnc5)n4)c3)cc(C(F)(F)F)c2)cn1 [nilotinib]
Outline: as §1

[3] = compound: Cc1nc(Nc2n[nH]c3c2CN(C(=O)N[C@H](CN(C)C)c2ccccc2)C3(C)C)c2sccc2n1
Outline: as §1

dasatinib = compound: Cc1nc(Nc2ncc(C(=O)Nc3c(C)cccc3Cl)s2)cc(N2CCN(CCO)CC2)n1 [dasatinib]
Outline: as §1

[4] = compound: Cc1ncc(-c2ccnc(Nc3ccc(S(C)(=O)=O)cc3)n2)n1C(C)C
Outline: as §1

[5] = compound: Cn1cc(-c2ccc3c(c2)CCN3C(=O)Cc2cccc(C(F)(F)F)c2)c2c(N)ncnc21
Outline: as §1

quisinostat = compound: Cn1cc(CNCC2CCN(c3ncc(C(=O)NO)cn3)CC2)c2ccccc21 [quisinostat]
Outline: as §1

tipifarnib = compound: Cn1cncc1[C@@](N)(c1ccc(Cl)cc1)c1ccc2c(c1)c(-c1cccc(Cl)c1)cc(=O)n2C [tipifarnib]
Outline: as §1

[6] = compound: NC(=O)Nc1cc(-c2cccc(F)c2)sc1C(=O)N[C@H]1CCCNC1
Outline: as §1

[7] = compound: NC(=O)c1cnc(N[C@@H]2CCCC[C@@H]2N)nc1Nc1cccc(-n2nccn2)c1
Outline: as §1

[8] = compound: NC1(c2ccc(-c3nc4ccn5c(=O)[nH]nc5c4cc3-c3ccccc3)cc2)CCC1
Outline: as §1

Measured: log2 fold change

HNRNPU (UniProt Q00839)
inactive: lapatinib -0.003 | pictilisib -0.007 | crizotinib 0.032 | [1] 0.05 | duvelisib 0.002 | gandotinib -0.091 | tozasertib 0.002 | doramapimod 0.002 | bafetinib 0.019 | [2] -0.065 | nilotinib -0.022 | [3] 0.002 | dasatinib -0.032 | [4] 0.013 | [5] 0.01 | quisinostat -0.002 | tipifarnib 0.037 | [6] 0.029 | [7] 0.001 | [8] 0.005

HSPA6 (UniProt P17066)
inactive: lapatinib -0.005 | pictilisib 0.035 | crizotinib -0.004 | [1] -0.059 | duvelisib 0.027 | gandotinib 0.022 | tozasertib -0.052 | doramapimod -0.004 | bafetinib -0.01 | [2] 0.048 | nilotinib 0 | [3] -0.035 | dasatinib -0.247 | [4] 0.004 | [5] 0.102 | quisinostat -0.024 | tipifarnib -0.003 | [6] -0.017 | [7] 0.033 | [8] -0.024

HSPA1L (UniProt P34931)
inactive: lapatinib -0.081 | pictilisib -0.042 | crizotinib 0.055 | [1] -0.037 | duvelisib 0.104 | gandotinib 0.012 | tozasertib 0.068 | doramapimod 0.025 | bafetinib 0.002 | [2] 0.01 | nilotinib -0.011 | [3] -0.017 | dasatinib 0.068 | [4] 0.014 | [5] -0.052 | quisinostat 0.191 | tipifarnib -0.017 | [6] 0.052 | [7] 0.065 | [8] -0.065

HIKESHI (UniProt Q53FT3)
inactive: lapatinib 0.004 | pictilisib -0.008 | crizotinib 0.025 | [1] 0.025 | duvelisib 0.002 | gandotinib -0.059 | tozasertib -0.066 | doramapimod 0.012 | bafetinib -0.037 | [2] -0.028 | nilotinib 0.003 | [3] 0.014 | dasatinib -0.007 | [4] 0.004 | [5] 0.014 | quisinostat 0.02 | tipifarnib 0.024 | [6] -0.029 | [7] -0.046 | [8] 0.051

HNRNPD isoform 3 (UniProt Q14103)
inactive: lapatinib -0.062 | pictilisib 0.126 | crizotinib -0.07 | [1] -0.08 | duvelisib 0.043 | gandotinib 0.094 | tozasertib -0.078 | doramapimod 0.045 | bafetinib 0.166 | [2] 0.033 | nilotinib 0.012 | [3] -0.073 | dasatinib 0.017 | [4] 0.017 | [5] 0.065 | quisinostat 0.005 | tipifarnib -0.002 | [6] 0.021 | [7] 0.028 | [8] -0.033

HSDL1 (UniProt Q3SXM5)
inactive: lapatinib -0.017 | pictilisib -0.008 | crizotinib -0.042 | [1] -0.224 | duvelisib -0.007 | gandotinib 0.094 | tozasertib -0.041 | doramapimod 0.014 | bafetinib -0.031 | [2] 0.023 | nilotinib 0.071 | [3] 0.012 | dasatinib 0.009 | [4] 0.096 | [5] -0.034 | quisinostat -0.01 | tipifarnib -0.026 | [6] -0.013 | [7] -0.002 | [8] 0.024

HNRNPH2 (UniProt P55795)
inactive: lapatinib 0.025 | pictilisib -0.004 | crizotinib -0.097 | [1] -0.048 | duvelisib -0.024 | gandotinib 0.068 | tozasertib -0.032 | doramapimod 0.062 | bafetinib 0.018 | [2] 0.008 | nilotinib -0.07 | [3] 0.04 | dasatinib 0.049 | [4] 0.071 | [5] 0.003 | quisinostat -0.147 | tipifarnib -0.003 | [6] 0.014 | [7] -0.037 | [8] -0.113

HIF1AN (UniProt Q9NWT6)
inactive: lapatinib 0 | pictilisib -0.065 | crizotinib 0.042 | [1] -0.043 | duvelisib -0.054 | gandotinib 0.057 | tozasertib 0.001 | doramapimod 0.153 | bafetinib -0.141 | [2] 0.018 | nilotinib -0.018 | [3] -0.001 | dasatinib -0.018 | [4] -0.013 | [5] -0.026 | quisinostat -0.165 | tipifarnib -0.039 | [6] 0.114 | [7] -0.002 | [8] 0.019

Pulled one by one from the entries so far (2):
HIF1AN (UniProt Q9NWT6)
inactive: lapatinib 0 | pictilisib -0.065 | crizotinib 0.042 | [1] -0.043 | duvelisib -0.054 | gandotinib 0.057 | tozasertib 0.001 | doramapimod 0.153 | bafetinib -0.141 | [2] 0.018 | nilotinib -0.018 | [3] -0.001 | dasatinib -0.018 | [4] -0.013 | [5] -0.026 | quisinostat -0.165 | tipifarnib -0.039 | [6] 0.114 | [7] -0.002 | [8] 0.019

HNRNPH2 (UniProt P55795)
inactive: lapatinib 0.025 | pictilisib -0.004 | crizotinib -0.097 | [1] -0.048 | duvelisib -0.024 | gandotinib 0.068 | tozasertib -0.032 | doramapimod 0.062 | bafetinib 0.018 | [2] 0.008 | nilotinib -0.07 | [3] 0.04 | dasatinib 0.049 | [4] 0.071 | [5] 0.003 | quisinostat -0.147 | tipifarnib -0.003 | [6] 0.014 | [7] -0.037 | [8] -0.113

(continued)

HEATR6 (UniProt Q6AI08)
inactive: lapatinib -0.014 | pictilisib -0.033 | crizotinib -0.112 | [1] -0.037 | duvelisib 0.084 | gandotinib 0.003 | tozasertib -0.003 | doramapimod -0.011 | bafetinib 0.054 | [2] 0.045 | nilotinib -0.085 | [3] 0.022 | dasatinib -0.019 | [4] 0.022 | [5] 0 | quisinostat -0.008 | tipifarnib -0.06 | [6] 0.055 | [7] 0.041 | [8] 0.026

HMBS (UniProt P08397)
inactive: lapatinib 0.013 | pictilisib 0.007 | crizotinib 0.03 | [1] 0.042 | duvelisib 0.007 | gandotinib -0.005 | tozasertib -0.018 | doramapimod -0.038 | bafetinib 0.021 | [2] -0.082 | nilotinib 0.017 | [3] 0.002 | dasatinib 0.035 | [4] 0.013 | [5] 0.011 | quisinostat 0.059 | tipifarnib 0.01 | [6] -0.028 | [7] -0.014 | [8] 0.011

HECTD4 (UniProt J3KPF0)
inactive: lapatinib -0.024 | pictilisib -0.043 | crizotinib -0.127 | [1] -0.005 | duvelisib -0.004 | gandotinib -0.024 | tozasertib 0.01 | doramapimod -0.002 | bafetinib -0.083 | [2] 0.101 | nilotinib 0.014 | [3] -0.009 | dasatinib -0.077 | [4] -0.007 | [5] 0.037 | quisinostat -0.145 | tipifarnib 0.016 | [6] 0.02 | [7] 0.011 | [8] 0.017

HSPA14 (UniProt Q0VDF9)
inactive: lapatinib -0.016 | pictilisib 0.023 | crizotinib -0.02 | [1] -0.038 | duvelisib 0.007 | gandotinib -0.039 | tozasertib 0.018 | doramapimod 0.003 | bafetinib -0.026 | [2] 0.037 | nilotinib -0.032 | [3] -0.001 | dasatinib -0.018 | [4] 0.009 | [5] 0.034 | quisinostat -0.026 | tipifarnib 0.021 | [6] 0.037 | [7] 0.001 | [8] -0.025

HLCS (UniProt P50747)
inactive: lapatinib -0.026 | pictilisib -0.022 | crizotinib -0.009 | [1] 0.199 | duvelisib 0.016 | gandotinib -0.002 | tozasertib 0.006 | doramapimod 0.026 | bafetinib -0.045 | [2] -0.007 | nilotinib -0.005 | [3] -0.005 | dasatinib 0.012 | [4] -0.003 | [5] 0.068 | quisinostat -0.022 | tipifarnib -0.006 | [6] -0.011 | [7] 0.024 | [8] 0.02

HEBP2 (UniProt Q9Y5Z4)
inactive: lapatinib -0.002 | pictilisib 0.005 | crizotinib 0.04 | [1] -0.011 | duvelisib 0.018 | gandotinib 0.03 | tozasertib 0.024 | doramapimod -0.004 | bafetinib 0.019 | [2] -0.017 | nilotinib 0.009 | [3] -0.028 | dasatinib 0.01 | [4] -0.008 | [5] 0.01 | quisinostat 0.021 | tipifarnib 0.026 | [6] -0.014 | [7] 0.002 | [8] -0.009

HNRNPM (UniProt P52272)
inactive: lapatinib -0.001 | pictilisib 0.063 | crizotinib 0.025 | [1] -0.011 | duvelisib -0.022 | gandotinib 0.02 | tozasertib -0.019 | doramapimod -0.113 | bafetinib -0.029 | [2] 0.053 | nilotinib 0.022 | [3] -0.043 | dasatinib -0.109 | [4] -0.05 | [5] 0.01 | quisinostat 0.055 | tipifarnib -0.112 | [6] 0.054 | [7] -0.002 | [8] 0.053

HOMER1 (UniProt Q86YM7)
inactive: lapatinib -0.043 | pictilisib -0.039 | crizotinib 0.026 | [1] 0.072 | duvelisib -0.006 | gandotinib -0.002 | tozasertib -0.058 | doramapimod 0.024 | bafetinib 0.043 | [2] -0.069 | nilotinib 0.007 | [3] 0.003 | dasatinib 0.003 | [4] -0.022 | [5] 0 | quisinostat 0.049 | tipifarnib -0.008 | [6] -0.035 | [7] -0.001 | [8] 0.014
